Assay results published in patent US20190033295A1.
No constants are given. Whether binding was seen depends on the method and setting. In cells and extracts the contact can be indirect. These calls come from enrichment with a bait or labelling near it, and not all partners need be listed. Sequences can lack the tags named with a protein.

The chains behind the UniProt entries cited, without tags or fusion partners. Residues count along the entry.
UniProt P11021, residues 19-654: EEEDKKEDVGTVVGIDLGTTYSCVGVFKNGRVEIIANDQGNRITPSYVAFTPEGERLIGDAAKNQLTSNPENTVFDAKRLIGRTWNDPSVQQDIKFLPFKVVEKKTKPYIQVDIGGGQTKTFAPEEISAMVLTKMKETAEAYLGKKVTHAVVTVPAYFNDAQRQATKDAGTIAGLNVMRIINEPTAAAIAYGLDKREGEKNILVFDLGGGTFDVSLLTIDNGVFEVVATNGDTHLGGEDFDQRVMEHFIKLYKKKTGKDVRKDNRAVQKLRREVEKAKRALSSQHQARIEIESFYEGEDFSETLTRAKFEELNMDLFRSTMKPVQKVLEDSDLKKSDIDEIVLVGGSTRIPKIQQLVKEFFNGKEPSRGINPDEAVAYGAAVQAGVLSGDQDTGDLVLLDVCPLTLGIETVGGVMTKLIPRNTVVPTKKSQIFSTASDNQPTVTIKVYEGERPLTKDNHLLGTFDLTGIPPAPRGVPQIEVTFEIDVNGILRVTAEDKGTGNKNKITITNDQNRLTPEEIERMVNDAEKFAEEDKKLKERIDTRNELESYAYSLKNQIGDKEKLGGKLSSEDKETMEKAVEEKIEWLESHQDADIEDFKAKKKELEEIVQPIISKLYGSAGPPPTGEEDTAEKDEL
UniProt P38646, residues 47-679: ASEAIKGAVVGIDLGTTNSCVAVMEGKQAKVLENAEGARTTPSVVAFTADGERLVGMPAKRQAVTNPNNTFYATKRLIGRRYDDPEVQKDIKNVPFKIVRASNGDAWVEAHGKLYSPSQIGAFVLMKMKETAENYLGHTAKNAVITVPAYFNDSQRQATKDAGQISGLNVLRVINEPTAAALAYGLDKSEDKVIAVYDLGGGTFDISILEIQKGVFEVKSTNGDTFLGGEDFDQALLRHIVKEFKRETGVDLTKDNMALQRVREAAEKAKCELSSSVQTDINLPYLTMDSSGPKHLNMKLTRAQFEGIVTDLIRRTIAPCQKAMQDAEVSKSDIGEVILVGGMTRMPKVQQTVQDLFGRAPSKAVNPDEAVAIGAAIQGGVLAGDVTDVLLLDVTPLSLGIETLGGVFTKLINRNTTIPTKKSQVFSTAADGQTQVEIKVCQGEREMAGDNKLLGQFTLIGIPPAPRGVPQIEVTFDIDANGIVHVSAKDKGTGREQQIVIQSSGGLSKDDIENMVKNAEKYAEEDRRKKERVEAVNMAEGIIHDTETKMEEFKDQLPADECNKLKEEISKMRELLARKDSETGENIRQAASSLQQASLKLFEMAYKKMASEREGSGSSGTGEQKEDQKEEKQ

Target: T1, GST-AIMP2-DX2 fragment DM1 (human) (UniProt Q13155)
T1 sequence: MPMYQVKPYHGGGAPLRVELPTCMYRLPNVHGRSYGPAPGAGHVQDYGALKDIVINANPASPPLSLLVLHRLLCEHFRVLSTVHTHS
Assay: GST pull-down from 293T lysate, mass spectrometry

| Substance | binding |
| --- | --- |
| HSPA5 (from UniProt P11021 19-654) | binds |
| HSPA9 (from UniProt P38646 47-679) | binds |
